Reference: PMC4829432, “T-box3 is a ciliary protein and regulates stability of the Gli3 transcription factor to control digit number” (eLife, 2016)
Results are given in words; binding and its absence hold for the method and conditions named. In cells and extracts the contact can be indirect. Some binding calls cover weakened binding; strength is not graded here. For some assays here: Sequences can lack the tags named with a protein.

Key:
[1] = biological target: T1, Suppressor of fused (Sufu), endogenous mouse protein (mouse (endogenous in E10.5 embryos)) (UniProt Q9Z0P7); assay: co-IP; endogenous proteins; E10.5 whole mouse embryo lysates in Dignam buffer C, control (wt) embryos; Sufu-Gli3, Sufu-Kif7 and Tbx3-Spop also assayed in Tbx3 null (Tbx3 delta-fl/delta-fl, ko) embryos, where less Sufu-Gli3 and Sufu-Kif7 co-precipitated; 5-10 ug antibody overnight at 4 C, Protein-G Dynal beads, immunoblot, densitometry
T1 sequence: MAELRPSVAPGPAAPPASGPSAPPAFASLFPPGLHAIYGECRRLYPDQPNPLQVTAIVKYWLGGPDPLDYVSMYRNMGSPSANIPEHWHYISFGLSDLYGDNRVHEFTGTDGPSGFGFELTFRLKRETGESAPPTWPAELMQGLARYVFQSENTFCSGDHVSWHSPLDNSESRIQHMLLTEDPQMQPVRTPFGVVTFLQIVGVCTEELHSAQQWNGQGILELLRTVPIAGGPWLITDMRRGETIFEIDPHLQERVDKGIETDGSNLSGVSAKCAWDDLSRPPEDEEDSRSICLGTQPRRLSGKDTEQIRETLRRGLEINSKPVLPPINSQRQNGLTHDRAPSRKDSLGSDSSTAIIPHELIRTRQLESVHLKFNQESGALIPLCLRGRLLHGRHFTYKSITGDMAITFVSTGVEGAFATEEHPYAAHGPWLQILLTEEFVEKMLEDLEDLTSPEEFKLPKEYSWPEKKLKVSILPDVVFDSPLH

[2] = biological target: T2, Kif7, endogenous mouse protein (mouse (endogenous in E10.5 embryos)) (UniProt B7ZNG0); assay: co-IP; as a4, but lysates of Tbx3 null (Tbx3 delta-fl/delta-fl, ko) E10.5 embryos; Kif7-Gli3 co-precipitate compared with control (wt) embryos by densitometry
T2 sequence: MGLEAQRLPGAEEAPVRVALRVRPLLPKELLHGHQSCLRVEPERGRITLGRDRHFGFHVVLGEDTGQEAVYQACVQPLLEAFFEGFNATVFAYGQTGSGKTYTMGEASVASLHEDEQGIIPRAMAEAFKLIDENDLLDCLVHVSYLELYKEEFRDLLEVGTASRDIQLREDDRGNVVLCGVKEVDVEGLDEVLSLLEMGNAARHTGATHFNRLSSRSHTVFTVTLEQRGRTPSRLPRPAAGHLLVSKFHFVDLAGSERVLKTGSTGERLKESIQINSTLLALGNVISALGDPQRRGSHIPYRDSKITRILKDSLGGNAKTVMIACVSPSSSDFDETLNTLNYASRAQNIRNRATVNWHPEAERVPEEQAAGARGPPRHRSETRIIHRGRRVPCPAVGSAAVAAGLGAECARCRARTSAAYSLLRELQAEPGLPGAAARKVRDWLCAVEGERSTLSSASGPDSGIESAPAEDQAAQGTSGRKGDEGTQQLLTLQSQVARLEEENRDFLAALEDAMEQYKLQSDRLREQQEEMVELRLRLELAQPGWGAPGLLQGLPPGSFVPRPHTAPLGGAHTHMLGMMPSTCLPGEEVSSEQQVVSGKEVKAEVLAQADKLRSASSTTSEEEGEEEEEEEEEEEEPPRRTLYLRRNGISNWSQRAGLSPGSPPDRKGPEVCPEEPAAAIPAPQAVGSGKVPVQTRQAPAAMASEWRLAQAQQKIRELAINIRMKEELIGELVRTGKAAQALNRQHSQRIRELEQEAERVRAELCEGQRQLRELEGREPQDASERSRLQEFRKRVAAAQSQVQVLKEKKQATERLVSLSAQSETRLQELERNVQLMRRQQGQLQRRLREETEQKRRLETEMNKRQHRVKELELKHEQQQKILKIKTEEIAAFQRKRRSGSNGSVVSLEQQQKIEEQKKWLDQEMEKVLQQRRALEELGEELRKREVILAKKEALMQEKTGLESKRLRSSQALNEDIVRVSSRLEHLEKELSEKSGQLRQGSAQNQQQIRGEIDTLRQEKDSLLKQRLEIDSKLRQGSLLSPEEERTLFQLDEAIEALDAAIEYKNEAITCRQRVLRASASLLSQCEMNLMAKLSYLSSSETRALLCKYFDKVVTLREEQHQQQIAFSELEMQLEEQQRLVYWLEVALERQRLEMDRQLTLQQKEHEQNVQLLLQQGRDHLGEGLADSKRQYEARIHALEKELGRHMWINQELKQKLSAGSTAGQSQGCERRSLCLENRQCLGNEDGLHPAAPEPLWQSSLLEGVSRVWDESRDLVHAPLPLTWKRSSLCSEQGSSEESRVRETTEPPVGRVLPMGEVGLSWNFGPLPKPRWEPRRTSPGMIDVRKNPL

B1: full length Gli3 (Gli3FL), endogenous mouse protein (natural protein, mouse (endogenous in E10.5 embryos), UniProt Q61602 1-1583, looked up)
chain: MEAQAHSSTATERKKAENSIGKCPTRTDVSEKAVASSTTSNEDESPGQIYHRERRNAITMQPQSVQGLNKISEEPSTSSDERASLIKKEIHGSLPHLAEPSLPYRGTVFAMDPRNGYMEPHYHPPHLFPAFHPPVPIDARHHEGRYHYDPSPIPPLHVPSALSSSPTYPDLPFIRISPHRNPTAASESPFSPPHPYINPYMDYIRSLHSSPSLSMISAARGLSPTDAPHAGVSPAEYYHQMALLTGQRSPYADILPSAATAGAGAIHMEYLHAMDSTRFPSPRLSARPSRKRTLSISPLSDHSFDLQTMIRTSPNSLVTILNNSRSSSSASGSYGHLSASAISPALSFTYPSAPVSLHMHQQILSRQQSLGSAFGHSPPLIHPAPTFPTQRPIPGIPTVLNPVQVSSGPSESSQSKPTSESAVSSTGDPMHNKRSKIKPDEDLPSPGSRGQQEQPEGTTLVKEEADKDESKQEPEVIYETNCHWEGCTREFDTQDQLVHHINNDHIHGEKKEFVCRWLDCSREQKPFKAQYMLVVHMRRHTGEKPHKCTFEGCTKAYSRLENLKTHLRSHTGEKPYVCEHEGCNKAFSNASDRAKHQNRTHSNEKPYVCKIPGCTKRYTDPSSLRKHVKTVHGPEAHVTKKQRGDMHPRPPPPRDSGSHSQSRSPGRPTQGAFGEQKELSNTTSKREECLQVKTVKAEKPMTSQPSPGGQSSCSSQQSPISNYSNSGLELPLTDGGSVADLSAIDETPIMDSTISTATTALALQARRNPAGTKWMEHIKLERLKQVNGMFPRLNPILPSKAPAVSPLIGNGTQSNNNYSSGGPGTLLPSRSDLSGVDFTVLNTLNRRDSNTSTISSAYLSSRRSSGISPCFSSRRSSEASQAEGRPQNVSVADSYDPISTDASRRSSEASQGDGLPSLLSLTPVQQYRLKAKYAAATGGPPPTPLPHMERLSLKTKMALLGEGRDSGVTLPPVHPPRRCSDGGGHTYRGRHLMPHDALANSVRRASDPVRTVSENMSLARVQRFSSLNSFNPPNLPPSVEKRSLVLQNYTRQESSQPRYFQASPCPPSITENVALEALTMDADANLNDEDLLPDDVVQYLNSQNQTGYGQQLQSGISEDSKVAHEPEDLDLAGLPDSHVGQEYPALEQPCSEGSKTDLPIQWNEVSSGTSDLSSSKLKCGQQRPSAQQPRGFGLYNNMVVHPHNLWKVGTGPAGGYQTLGENSSTYNGPEHFAIHSGDGLGTNGNTFHEQPFKTQQYGSQLNRQPLTSSALDHACGTGIQGSKLKGNSLQENGGLLDFSLSVAPNELAGNTVNGMQTQDQMGQGYIAHQLLSGSMQHQGPSRPGQQVLGQVGATSHINIYQGTESCLPGTQDNSSQPSSMAAIRGYQPCASYGGNRRQAMPRGNLTLQQGQLSDMSQSSRVNSIKMEAQGQSQQLCSTVQNYSGQFYDQTMGFSQQDRKAGSFSLSDANCLLQGNGTENSELLSPGANQVTSTVDSFESHDLEGVQIDFDAIIDDGDHTSLMSGALSPSIIQNLSHSSSRLTTPRASLPFPSLSMGTTNMAIGDMSSLLTSLAEESKFLAVMQ
notes: Gli3 transcription factor, mouse, the unprocessed full length form (Gli3FL band on anti-Gli3 immunoblots); also called GliFL; source: endogenous, E10.5 mouse forelimb bud lysate or E10.5 whole embryo lysate (control or Tbx3 null)
**Q.** With B1 as the binder, how does the binding [1] read?
**A.** Its binding is “binds”.

**Q.** What about the binding [2] of the same binder?
**A.** Its binding is “binds”.
